Measured values taken from PMC10272277.
These are yes or no findings as the source states them, for the method shown. In cells and extracts the contact can be indirect. Some results given as binding are weak or reduced against the parent protein; the word gives no strength. For some assays here: Tags and fused reporters may be left off the sequences shown.

By UniProt entry, the sequences of proteins in these tests, tags left out. Residues count along the entry.
UniProt P37173, residues 23-567: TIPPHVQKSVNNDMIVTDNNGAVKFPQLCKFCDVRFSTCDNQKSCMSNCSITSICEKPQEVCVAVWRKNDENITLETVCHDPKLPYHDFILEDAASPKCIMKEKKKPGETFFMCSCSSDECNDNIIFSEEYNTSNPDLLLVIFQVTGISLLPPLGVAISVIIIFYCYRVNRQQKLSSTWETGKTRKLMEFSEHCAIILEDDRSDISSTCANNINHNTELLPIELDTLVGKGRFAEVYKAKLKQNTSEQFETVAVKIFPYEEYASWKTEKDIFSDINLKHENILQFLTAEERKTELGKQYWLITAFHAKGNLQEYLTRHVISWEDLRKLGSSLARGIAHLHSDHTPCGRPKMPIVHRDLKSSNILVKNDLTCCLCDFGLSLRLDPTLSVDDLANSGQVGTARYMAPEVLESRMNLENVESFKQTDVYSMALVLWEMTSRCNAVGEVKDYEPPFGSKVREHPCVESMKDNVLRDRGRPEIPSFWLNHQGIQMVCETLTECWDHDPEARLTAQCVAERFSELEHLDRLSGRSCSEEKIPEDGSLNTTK

Tests used:
[1] = target: T1, USP33 (luciferase complementation construct) (UniProt Q8TEY7); experiment: split reporter; luciferase complementation assay of USP33 with candidate target proteins; no methods given
T1 sequence: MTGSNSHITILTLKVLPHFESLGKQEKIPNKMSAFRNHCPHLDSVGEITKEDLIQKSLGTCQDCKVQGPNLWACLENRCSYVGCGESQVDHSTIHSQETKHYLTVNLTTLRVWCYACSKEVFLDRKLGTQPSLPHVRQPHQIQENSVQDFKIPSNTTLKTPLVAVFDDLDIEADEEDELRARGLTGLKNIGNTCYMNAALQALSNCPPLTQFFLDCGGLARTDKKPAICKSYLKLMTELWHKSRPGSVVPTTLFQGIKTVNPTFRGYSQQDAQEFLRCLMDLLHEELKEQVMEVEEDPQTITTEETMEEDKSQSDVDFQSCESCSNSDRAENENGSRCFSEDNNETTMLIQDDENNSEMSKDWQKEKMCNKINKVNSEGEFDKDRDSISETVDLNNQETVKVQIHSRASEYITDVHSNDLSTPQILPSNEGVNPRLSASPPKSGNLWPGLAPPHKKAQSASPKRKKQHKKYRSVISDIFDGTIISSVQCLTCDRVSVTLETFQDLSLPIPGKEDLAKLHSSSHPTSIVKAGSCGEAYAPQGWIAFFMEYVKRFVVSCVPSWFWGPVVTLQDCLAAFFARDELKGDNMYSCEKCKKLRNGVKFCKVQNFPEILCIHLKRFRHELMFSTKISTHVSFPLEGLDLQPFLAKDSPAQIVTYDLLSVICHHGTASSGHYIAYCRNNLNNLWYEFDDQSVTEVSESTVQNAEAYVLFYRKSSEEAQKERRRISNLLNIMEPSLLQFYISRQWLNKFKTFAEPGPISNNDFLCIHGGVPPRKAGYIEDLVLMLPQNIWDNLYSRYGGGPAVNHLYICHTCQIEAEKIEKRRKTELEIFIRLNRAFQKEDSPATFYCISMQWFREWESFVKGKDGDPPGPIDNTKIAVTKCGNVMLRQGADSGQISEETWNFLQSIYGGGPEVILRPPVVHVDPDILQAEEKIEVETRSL

USP33 = target: T2, USP33 (UniProt Q8TEY7); experiment: co-IP; PC cells transfected with corresponding plasmids, NP40 lysis buffer, overnight at 4 °C with IP antibody or isotype IgG, protein A/G magnetic beads, Western blot
T2 sequence: T1 sequence

Substance	binding [1]	binding (USP33)
TGFBR2 (luciferase complementation construct) (from UniProt P37173 23-567) (receptor)	binds	–
TGFBR2 (from UniProt P37173 23-567) (receptor)	–	binds
